# Laboratory results from US20250283058A1, “USE OF p55-GAMMA GENE AND/OR p55-GAMMA PROTEIN AS TARGET IN MAINTAINING CARDIAC IRON HOMEOSTASIS AND TREATING RELATED DISEASE” (BEIJING FRIENDSHIP HOSPITAL, CAPITAL MEDICAL UNIVERSITY, priority 2024, published 2025).
# For at least one compound, name, drawing or mass did not settle the structure.
# Test system: p55γ gene
# Assay: p55γ gene mRNA and protein levels in cardiomyocytes treated with ferroptosis inducers (qPCR, Western blot)
# Format: cell-based
# Details: NRVMs treated with ferroptosis inducer vs vehicle group
# Description: The cultured cardiomyocytes were divided into: an erastin group and a vehicle group, where the NRVMs were treated with erastin in the erastin group, while the cardiomyocytes in the vehicle group were not treated in any way. The mRNA and protein levels of p55γ gene in the two groups of cardiomyocytes were detected by conventional quantitative polymerase chain reaction (qPCR) and Western blot methods.
# The mRNA and protein levels of p55γ gene in the two groups of cardiomyocytes were detected by conventional qPCR and Western blot methods.
structure (smiles),measurement,setting,value
CCOc1ccccc1-n1c(C(C)N2CCN(C(=O)COc3ccc(Cl)cc3)CC2)nc2ccccc2c1=O (centres unmarked) [erastin],protein level of p55γ gene,Western blot,significantly reduced
same,mRNA level of p55γ gene,qPCR,significantly reduced
